Screen size: about 320,000 compounds; about 22,000 (6.9%) were called active. The shares of active, inactive and inconclusive entries below differ from those in the screen. Calls follow the shape of the dose curve; as a rule, active = well fitted inhibition curve with a large enough effect; inconclusive = small, poorly fitted or top-dose-only effect, or another doubt; inactive = no such curve, though single readings can be large or run the other way. Potencies of inconclusive entries are doubtful fits and often do not repeat.
Test: Primary qHTS for delayed death inhibitors of the malarial parasite plastid, 96 hour incubation
Conditions: P. falciparum luciferase reporter growth; series mostly up to 28.7 µM
How it was run: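 Infected RBCs, 2% Hct / 0.05% parasitemia final; luciferase-reporter P. falciparum; cpd 96 h, 37 C, 5% CO2; luciferase detection reagent; luminescence.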
Potency is read from the fitted curve at half-maximal effect.

Q: Which Potency does the source give for `CN(C)S(=O)(=O)c1cc(NC(=O)CN2CCOCC2)ccc1Cl` here?
A: inconclusive: 20.8 µM [inhibitor, partial curve, poor fit]

Q: Which Potency does the source give for `COc1ccc(CN2C(=O)Cc3c2nc(N)c2c(N)nc(N4CCOCC4)c(C#N)c32)cc1` here?
A: inconclusive: 1.85 µM [inhibitor, partial curve, poor fit]

Q: With `COC(=O)CNC(=O)CCC(=O)N1CCN(C(c2ccccc2)c2ccccc2)CC1` as the molecule, how does the Potency read?
A: inconclusive: 11.7 µM [inhibitor, partial curve]

Q: For `Cc1ccc(N2CC(C(=O)OCC(=O)C(C)(C)C)CC2=O)cc1C` (configuration not stated), which Potency is on record?
A: inconclusive: 18.5 µM [inhibitor, single point]

Q: Which Potency does the source give for `Cc1nc2sc3c(c2c(=O)n1/N=C/c1ccco1)CCCC3` here?
A: inconclusive: 13.1 µM [inhibitor, single point]

Q: With `O=C(CNC(=O)c1ccc2c(c1)OCO2)N/N=C/c1cc(Br)ccc1O` as the molecule, how does the Potency read?
A: inactive

Q: For `Cc1c(C(=O)N2CCCCC2)sc(NC(=O)c2ccco2)c1C#N`, which Potency is on record?
A: inactive

Q: With `CC(C)OP(=O)(OC(C)C)C(NCc1ccccc1)c1ccccc1` (configuration not stated) as the molecule, how does the Potency read?
A: inconclusive: 2.33 µM [inhibitor, partial curve]

Q: Which Potency does the source give for `O=C(Nc1ccc2nc(N3CCOCC3)sc2c1)c1ccccc1` here?
A: inactive

Q: Which Potency does the source give for `CCC(C)(C)C1CCc2[nH]nc(C(=O)NC(C)C)c2C1` (configuration not stated) here?
A: inconclusive: 18.5 µM [inhibitor, single point]

Q: For `Cc1[nH]c2ccccc2c1C(c1ccncc1)N1CCN(c2ccccc2F)CC1` (configuration not stated), which Potency is on record?
A: inconclusive: 13.1 µM [inhibitor, single point]

Q: With `Cc1c(NC(=O)C(C)OC(=O)/C=C/c2ccco2)c(=O)n(-c2ccccc2)n1C` (configuration not stated) as the molecule, how does the Potency read?
A: inactive

Q: With `C[C@H](NC(=O)c1[nH]cnc1C(=O)Nc1ccccc1)c1ccccc1` as the molecule, how does the Potency read?
A: inconclusive: 13.1 µM [inhibitor, single point]

Q: Which Potency does the source give for `COc1cccc(NC(=O)N(CCCN2CCOCC2)C(C)c2cc3cccc(OC)c3o2)c1` (configuration not stated) here?
A: inconclusive: 18.5 µM [inhibitor, single point]

Q: For `O=C(NC(=S)N1CCN(C2CCCCC2)CC1)c1ccccc1`, which Potency is on record?
A: inconclusive: 18.5 µM [inhibitor, single point]

Q: With `Cc1cc(C(F)(F)F)n2nc(-c3cnn(C)c3C(F)(F)F)c(Cl)c2n1` as the molecule, how does the Potency read?
A: inconclusive: 10.4 µM [inhibitor, partial curve]

Q: For `CC12CCC(=O)N1C(C(=O)Nc1ccc(Cl)c(S(=O)(=O)N3CCCCC3)c1)CS2` (configuration not stated), which Potency is on record?
A: inconclusive: 11.7 µM [inhibitor, single point]

Q: For `CCN1CCN(c2cc(C)c3cc(NC(=S)N(CC)CC)ccc3n2)CC1`, which Potency is on record?
A: inactive

Q: Which Potency does the source give for `CCCCOc1ccc(C(=O)NCC(=O)NCC2CCCO2)cc1` (configuration not stated) here?
A: inactive

Q: With `Cc1cc(C)cc(C(=O)NCC(=O)N(C)CCOc2ccccc2)c1` as the molecule, how does the Potency read?
A: inconclusive: 14.7 µM [inhibitor, single point]

Q: For `O=C1NC(=S)N(Cc2ccco2)C(=O)/C1=C\c1cccs1`, which Potency is on record?
A: inactive

Q: Which Potency does the source give for `Cc1cc(F)ccc1S(=O)(=O)N1CCCCC1CCNC(=O)C(=O)NCc1ccccn1` (configuration not stated) here?
A: inconclusive: 9.28 µM [inhibitor, single point]

Q: Which Potency does the source give for `C#CCOCCOCCOCCNc1nc(N2CCN(C(=O)[C@H]([C@@H](C)CC)n3cc([C@@H](N)CC(C)C)nn3)CC2)nc(N2CCN(C(=O)[C@H]([C@@H](C)CC)n3cc([C@@H](N)CC(C)C)nn3)CC2)n1` here?
A: active: 1.85 µM

Q: Which Potency does the source give for `COc1cc(/C=C2\SC(N)=NC2=O)ccc1OCC(=O)Nc1ccccc1C` here?
A: active: 5.22 µM

Q: With `COCCn1cnc2c1c(=O)n(CC(=O)NC(=O)NC(C)(C)C)c(=O)n2Cc1ccccc1` as the molecule, how does the Potency read?
A: active: 0.262 µM

Q: With `CCCCCN(C(=O)CCC(=O)OCc1ccc(C(C)C)cc1)c1c(N)n(CCCC)c(=O)[nH]c1=O` as the molecule, how does the Potency read?
A: active: 10.4 µM

Q: With `Cc1ccc(C(=O)/C=C/Nc2cccc(O)c2)cc1` as the molecule, how does the Potency read?
A: inactive

Q: With `CCOC(=O)c1ccc(-c2ccc(/C=C(\C#N)C(=O)NCc3cccs3)o2)cc1` as the molecule, how does the Potency read?
A: inconclusive: 2.94 µM [inhibitor, full curve, poor fit]

Q: Which Potency does the source give for `COc1ccc(-n2c(=O)[nH]cc(C(=O)N3CCCc4ccccc43)c2=O)cc1` here?
A: inconclusive: 10.4 µM [inhibitor, single point]

Q: Which Potency does the source give for `CCc1cccc2c(C(=O)CN3C(=O)NC4(CCc5ccccc54)C3=O)c[nH]c12` (configuration not stated) here?
A: inconclusive: 1.04 µM [inhibitor, partial curve, poor fit]

Q: With `CC/C(=C/c1ccccc1)c1cccc2[nH]c3c(OC)cccc3c12` as the molecule, how does the Potency read?
A: inconclusive: 16.5 µM [inhibitor, single point]

Q: For `O=C(CN1C(=O)COc2ccccc21)Nc1ccc2c(c1)OCCO2`, which Potency is on record?
A: inconclusive: 18.5 µM [inhibitor, single point]

Q: For `COc1ccc(NC(=O)C2CCC(CNc3c(N4CCOCC4)c(=O)c3=O)CC2)cc1Cl` (configuration not stated), which Potency is on record?
A: inconclusive: 11.7 µM [inhibitor, single point]

Q: For `CCOC(=O)c1ccc(NC(=O)c2nc[nH]c2C(=O)N[C@@H](CCCCNC(=O)OC(C)(C)C)C(=O)OC(C)(C)C)cc1`, which Potency is on record?
A: active: 5.86 µM

Q: With `Cc1cc(OCC(=O)Nc2cccnc2)c2c(C)c(C)c(=O)oc2c1` as the molecule, how does the Potency read?
A: inactive

Q: With `Cc1onc(-c2c(F)cccc2Cl)c1C(=O)O/N=C(\N)c1ccc([N+](=O)[O-])o1` as the molecule, how does the Potency read?
A: active: 11.7 µM

Q: Which Potency does the source give for `CCOc1ccc(C(=O)NC2CC(C)(C)NC(C)(C)C2)cc1` here?
A: inconclusive: 3.29 µM [inhibitor, full curve]

Q: For `[O-][n+]1c2ccccc2c2n1CCN1CCOC21c1ccc(Cl)cc1` (configuration not stated), which Potency is on record?
A: inconclusive: 4.15 µM [inhibitor, single point]

Q: Which Potency does the source give for `COc1c(C)cc(S(=O)(=O)NCCN2CCOCC2)c(C)c1C` here?
A: inconclusive: 0.0029 µM [inhibitor, full curve, poor fit]

Q: With `N#Cc1ccc(CSc2nnc(COc3ccccc3)n2-c2ccccc2)cc1` as the molecule, how does the Potency read?
A: inconclusive: 8.28 µM [inhibitor, partial curve, poor fit]

Q: For `CC[n+]1c(C=C2C=C(C)OC(C)=C2)sc2ccccc21`, which Potency is on record?
A: inconclusive: 6.57 µM [inhibitor, partial curve]

Q: Which Potency does the source give for `C=CCN(c1ccccc1)S(=O)(=O)c1cc2c(cc1C)NC(=O)CO2` here?
A: inconclusive: 1.31 µM [inhibitor, partial curve]

Source: PubChem BioAssay AID504834 (National Center for Advancing Translational Sciences (NCATS), 2011)
